Data from the supplement of paper PMC12823440, “Inhibitors supercharge kinase turnover through native proteolytic circuits” (Nature, 2025).
Counter-ions that a name gives are not always drawn. Some of the results follow. The calls rarely recur for the same compound in another form.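 Kinases were expressed as nanoluciferase fusions in K562 cells and luminescence was read every 4 h between 2 and 18 h as percent of control, DMSO set to 100% and a positive control to 0%. A time point counts as decreased when the signal drops significantly (2 sigma). The hit call is the authors' own, does not follow from the count of time points alone, and its rule is not shown.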

Protein sequences, listed by entry. Tags and fused reporters are not part of them. Lines headed by an entry give the natural chain unless they say otherwise; changes in a name come on top.
UniProt P31749: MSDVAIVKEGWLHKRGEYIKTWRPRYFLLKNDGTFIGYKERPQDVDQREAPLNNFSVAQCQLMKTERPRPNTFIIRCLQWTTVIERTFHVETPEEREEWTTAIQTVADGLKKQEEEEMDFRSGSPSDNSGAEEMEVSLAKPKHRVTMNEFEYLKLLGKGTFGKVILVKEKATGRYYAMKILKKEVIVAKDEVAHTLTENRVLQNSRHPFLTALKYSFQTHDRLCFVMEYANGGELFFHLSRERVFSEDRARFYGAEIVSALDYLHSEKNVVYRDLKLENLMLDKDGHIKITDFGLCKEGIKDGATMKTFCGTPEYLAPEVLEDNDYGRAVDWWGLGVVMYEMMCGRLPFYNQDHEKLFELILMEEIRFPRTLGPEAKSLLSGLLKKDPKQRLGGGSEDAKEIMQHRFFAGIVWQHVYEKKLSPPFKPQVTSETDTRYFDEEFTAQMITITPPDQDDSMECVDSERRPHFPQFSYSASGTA
UniProt Q9UM73: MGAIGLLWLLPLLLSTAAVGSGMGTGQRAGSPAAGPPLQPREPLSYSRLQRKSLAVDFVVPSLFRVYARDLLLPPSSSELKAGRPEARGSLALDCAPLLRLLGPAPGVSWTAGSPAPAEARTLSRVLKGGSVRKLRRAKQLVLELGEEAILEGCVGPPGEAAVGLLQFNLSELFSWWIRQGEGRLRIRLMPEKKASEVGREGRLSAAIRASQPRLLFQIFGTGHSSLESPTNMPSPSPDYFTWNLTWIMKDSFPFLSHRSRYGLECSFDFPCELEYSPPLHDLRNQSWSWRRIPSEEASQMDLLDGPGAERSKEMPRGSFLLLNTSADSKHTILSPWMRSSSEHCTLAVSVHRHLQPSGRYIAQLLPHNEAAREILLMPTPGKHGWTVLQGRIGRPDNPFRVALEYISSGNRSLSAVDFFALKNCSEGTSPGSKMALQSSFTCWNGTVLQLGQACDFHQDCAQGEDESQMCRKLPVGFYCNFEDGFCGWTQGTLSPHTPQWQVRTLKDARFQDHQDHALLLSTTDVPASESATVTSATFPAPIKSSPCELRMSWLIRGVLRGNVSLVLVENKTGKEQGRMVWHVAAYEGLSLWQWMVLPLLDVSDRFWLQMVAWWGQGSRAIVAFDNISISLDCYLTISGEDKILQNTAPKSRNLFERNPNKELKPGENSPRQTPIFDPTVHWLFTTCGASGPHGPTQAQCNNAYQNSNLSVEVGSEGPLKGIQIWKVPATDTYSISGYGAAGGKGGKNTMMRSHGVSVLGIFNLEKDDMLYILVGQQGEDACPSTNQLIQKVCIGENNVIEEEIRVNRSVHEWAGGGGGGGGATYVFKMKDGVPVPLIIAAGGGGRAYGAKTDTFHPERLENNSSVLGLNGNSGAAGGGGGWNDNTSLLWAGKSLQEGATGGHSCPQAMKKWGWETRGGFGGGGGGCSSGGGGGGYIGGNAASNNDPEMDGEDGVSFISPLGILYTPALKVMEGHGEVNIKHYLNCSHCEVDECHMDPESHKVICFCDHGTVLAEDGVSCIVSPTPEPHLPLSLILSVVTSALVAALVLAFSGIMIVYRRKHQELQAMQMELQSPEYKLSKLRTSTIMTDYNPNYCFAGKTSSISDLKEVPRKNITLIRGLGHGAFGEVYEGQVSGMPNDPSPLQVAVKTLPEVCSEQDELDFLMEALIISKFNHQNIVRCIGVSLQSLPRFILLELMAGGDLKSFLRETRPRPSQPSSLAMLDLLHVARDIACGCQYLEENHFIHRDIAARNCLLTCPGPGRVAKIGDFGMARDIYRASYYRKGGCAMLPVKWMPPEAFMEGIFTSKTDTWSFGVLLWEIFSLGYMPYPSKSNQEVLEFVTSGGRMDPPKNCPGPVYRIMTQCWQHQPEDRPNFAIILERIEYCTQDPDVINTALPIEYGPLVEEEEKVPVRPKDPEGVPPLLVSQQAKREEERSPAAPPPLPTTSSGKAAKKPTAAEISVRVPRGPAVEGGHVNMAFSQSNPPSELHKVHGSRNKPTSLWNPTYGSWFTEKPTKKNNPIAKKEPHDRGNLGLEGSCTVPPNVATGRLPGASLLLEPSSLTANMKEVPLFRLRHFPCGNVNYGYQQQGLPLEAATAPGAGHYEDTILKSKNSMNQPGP
UniProt P10398: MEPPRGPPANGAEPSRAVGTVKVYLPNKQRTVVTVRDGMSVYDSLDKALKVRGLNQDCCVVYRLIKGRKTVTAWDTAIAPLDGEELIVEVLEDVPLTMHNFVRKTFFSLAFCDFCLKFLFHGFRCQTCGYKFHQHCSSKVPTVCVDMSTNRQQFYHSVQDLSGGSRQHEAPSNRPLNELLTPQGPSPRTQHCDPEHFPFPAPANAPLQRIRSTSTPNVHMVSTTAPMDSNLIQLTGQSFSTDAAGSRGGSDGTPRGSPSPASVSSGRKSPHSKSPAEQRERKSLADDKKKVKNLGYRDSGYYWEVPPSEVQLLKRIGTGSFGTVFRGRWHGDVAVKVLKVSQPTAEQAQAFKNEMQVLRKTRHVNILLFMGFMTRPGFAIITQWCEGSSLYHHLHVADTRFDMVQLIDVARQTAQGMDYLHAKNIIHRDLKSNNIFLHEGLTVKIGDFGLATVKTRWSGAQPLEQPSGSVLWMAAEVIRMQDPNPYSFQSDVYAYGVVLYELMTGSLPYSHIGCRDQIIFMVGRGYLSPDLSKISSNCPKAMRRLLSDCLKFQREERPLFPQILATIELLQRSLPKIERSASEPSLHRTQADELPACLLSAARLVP
UniProt O14965: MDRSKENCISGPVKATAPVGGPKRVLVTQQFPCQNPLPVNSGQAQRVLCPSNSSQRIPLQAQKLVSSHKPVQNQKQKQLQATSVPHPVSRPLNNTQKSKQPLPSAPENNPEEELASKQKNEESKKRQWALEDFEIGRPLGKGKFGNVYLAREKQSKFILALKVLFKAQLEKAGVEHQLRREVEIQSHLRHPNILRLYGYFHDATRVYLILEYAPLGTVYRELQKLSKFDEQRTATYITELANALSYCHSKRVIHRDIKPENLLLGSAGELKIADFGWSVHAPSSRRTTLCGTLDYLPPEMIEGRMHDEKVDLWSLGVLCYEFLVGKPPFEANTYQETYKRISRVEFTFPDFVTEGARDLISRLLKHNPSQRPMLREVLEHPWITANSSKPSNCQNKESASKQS
UniProt Q96GD4, whole entry: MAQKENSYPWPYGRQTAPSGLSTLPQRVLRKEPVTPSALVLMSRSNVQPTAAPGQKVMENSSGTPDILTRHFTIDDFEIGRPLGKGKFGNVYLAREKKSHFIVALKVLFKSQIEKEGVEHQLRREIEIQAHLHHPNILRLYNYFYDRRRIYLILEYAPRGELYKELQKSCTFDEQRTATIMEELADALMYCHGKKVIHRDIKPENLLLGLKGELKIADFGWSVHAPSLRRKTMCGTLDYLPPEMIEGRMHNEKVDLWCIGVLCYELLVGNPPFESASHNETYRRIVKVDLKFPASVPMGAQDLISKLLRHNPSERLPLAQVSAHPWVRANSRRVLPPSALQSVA
UniProt Q9UQB9: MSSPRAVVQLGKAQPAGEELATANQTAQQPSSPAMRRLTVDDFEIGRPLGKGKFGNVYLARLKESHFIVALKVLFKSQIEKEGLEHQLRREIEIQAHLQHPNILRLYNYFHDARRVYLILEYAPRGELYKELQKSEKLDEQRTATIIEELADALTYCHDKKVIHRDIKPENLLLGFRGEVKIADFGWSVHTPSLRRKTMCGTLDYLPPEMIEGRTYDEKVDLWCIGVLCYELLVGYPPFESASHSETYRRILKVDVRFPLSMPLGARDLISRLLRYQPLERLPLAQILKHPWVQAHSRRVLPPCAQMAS
UniProt P51813: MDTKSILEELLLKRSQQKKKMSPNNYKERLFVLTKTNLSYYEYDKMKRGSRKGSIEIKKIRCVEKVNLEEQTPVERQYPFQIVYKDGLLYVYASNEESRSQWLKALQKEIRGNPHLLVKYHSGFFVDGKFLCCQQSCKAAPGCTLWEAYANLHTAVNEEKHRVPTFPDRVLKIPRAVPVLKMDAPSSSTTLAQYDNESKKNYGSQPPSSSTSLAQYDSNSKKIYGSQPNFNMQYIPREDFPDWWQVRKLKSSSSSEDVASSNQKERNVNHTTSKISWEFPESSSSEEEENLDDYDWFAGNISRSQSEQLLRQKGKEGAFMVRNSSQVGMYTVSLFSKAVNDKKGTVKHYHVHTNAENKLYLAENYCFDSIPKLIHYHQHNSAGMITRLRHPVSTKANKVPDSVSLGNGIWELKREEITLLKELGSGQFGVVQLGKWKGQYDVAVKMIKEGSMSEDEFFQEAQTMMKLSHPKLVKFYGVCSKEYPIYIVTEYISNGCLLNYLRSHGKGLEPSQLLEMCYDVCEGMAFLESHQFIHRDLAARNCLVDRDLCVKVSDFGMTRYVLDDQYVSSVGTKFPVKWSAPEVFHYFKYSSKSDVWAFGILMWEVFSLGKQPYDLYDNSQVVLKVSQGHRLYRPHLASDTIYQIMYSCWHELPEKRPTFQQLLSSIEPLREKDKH
UniProt Q9UQM7, whole entry: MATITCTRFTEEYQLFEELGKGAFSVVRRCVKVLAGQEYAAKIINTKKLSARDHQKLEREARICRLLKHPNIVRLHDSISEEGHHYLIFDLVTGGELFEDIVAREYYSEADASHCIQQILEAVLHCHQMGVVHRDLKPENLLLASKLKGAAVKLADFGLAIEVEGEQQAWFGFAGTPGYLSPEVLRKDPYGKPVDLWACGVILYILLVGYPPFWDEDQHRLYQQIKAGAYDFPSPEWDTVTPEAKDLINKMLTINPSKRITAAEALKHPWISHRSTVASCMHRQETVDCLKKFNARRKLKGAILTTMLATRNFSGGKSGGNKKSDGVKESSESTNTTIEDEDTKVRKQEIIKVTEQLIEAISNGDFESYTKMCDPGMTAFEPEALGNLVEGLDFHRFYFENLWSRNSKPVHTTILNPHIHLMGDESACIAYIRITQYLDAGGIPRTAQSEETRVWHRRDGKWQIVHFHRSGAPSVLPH
UniProt Q15131: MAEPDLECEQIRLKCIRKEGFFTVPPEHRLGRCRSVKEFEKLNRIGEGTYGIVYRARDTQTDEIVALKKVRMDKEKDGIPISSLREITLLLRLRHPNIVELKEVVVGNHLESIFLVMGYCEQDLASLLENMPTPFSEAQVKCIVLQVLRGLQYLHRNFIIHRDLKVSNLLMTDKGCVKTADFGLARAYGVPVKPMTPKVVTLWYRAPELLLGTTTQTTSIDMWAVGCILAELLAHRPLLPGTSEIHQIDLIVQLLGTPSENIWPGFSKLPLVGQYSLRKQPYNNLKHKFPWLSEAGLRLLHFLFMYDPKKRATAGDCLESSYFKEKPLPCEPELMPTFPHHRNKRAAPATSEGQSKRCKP
UniProt Q00526: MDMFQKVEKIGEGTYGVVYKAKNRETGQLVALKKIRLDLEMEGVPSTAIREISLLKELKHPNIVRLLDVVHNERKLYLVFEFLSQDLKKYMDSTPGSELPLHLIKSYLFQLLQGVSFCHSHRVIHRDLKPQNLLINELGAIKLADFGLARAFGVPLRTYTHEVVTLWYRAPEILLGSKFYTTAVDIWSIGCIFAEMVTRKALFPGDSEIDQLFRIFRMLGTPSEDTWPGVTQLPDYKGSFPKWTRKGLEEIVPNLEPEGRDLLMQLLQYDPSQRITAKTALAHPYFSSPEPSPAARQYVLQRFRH
UniProt P11802: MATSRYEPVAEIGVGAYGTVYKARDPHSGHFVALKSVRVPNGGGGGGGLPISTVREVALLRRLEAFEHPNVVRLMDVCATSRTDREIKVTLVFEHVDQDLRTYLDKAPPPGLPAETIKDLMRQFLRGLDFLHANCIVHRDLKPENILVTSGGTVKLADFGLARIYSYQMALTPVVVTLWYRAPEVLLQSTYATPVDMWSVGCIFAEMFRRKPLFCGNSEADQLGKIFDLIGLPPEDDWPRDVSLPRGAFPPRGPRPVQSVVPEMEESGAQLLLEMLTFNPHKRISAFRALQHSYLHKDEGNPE
UniProt Q00535, whole entry, looked up: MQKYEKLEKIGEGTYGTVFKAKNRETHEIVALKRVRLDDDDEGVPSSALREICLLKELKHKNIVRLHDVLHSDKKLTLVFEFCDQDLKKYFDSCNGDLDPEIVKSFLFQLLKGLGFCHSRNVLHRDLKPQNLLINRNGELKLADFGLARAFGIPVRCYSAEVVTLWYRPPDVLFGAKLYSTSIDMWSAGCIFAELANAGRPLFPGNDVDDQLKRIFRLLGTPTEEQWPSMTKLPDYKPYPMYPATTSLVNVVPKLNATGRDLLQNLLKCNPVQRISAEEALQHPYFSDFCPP
UniProt Q00534, whole entry: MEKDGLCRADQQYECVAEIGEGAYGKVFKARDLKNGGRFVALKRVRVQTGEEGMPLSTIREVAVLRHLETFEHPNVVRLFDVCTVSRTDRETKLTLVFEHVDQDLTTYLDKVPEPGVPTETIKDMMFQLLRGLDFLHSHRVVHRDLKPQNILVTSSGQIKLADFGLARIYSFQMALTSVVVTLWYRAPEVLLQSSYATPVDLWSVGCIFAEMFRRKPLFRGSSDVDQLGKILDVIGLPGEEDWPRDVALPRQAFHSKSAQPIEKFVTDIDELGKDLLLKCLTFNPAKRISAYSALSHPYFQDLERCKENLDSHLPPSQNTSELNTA

Columns and labels:
Assay in all cases: kinase-Nluc reporter destabilization hit call (1 = scored as downregulated) (binary); higher = compound decreases kinase abundance
Conditions in all cases: K562; 2-18 h
[1] = molecular target: ABL1 (UniProt P00519)
[2] = molecular target: AKT1 (UniProt P31749)
[3] = molecular target: ALK (UniProt Q9UM73)
[4] = molecular target: ARAF (UniProt P10398)
[5] = molecular target: AURKA (UniProt O14965)
[6] = molecular target: AURKB (UniProt Q96GD4)
[7] = molecular target: AURKC (UniProt Q9UQB9)
[8] = molecular target: BLK (UniProt P51451)
[9] = molecular target: BMX (UniProt P51813)
[10] = molecular target: BRAF (UniProt P15056)
[11] = tested on: BRAF_V600E
[12] = molecular target: BTK (UniProt Q06187)
[13] = molecular target: CAMK2A (UniProt Q9UQM7)
[14] = molecular target: CAMK2G (UniProt Q13555)
[15] = molecular target: CDK10 (UniProt Q15131)
[16] = molecular target: CDK2 (UniProt P24941)
[17] = molecular target: CDK3 (UniProt Q00526)
[18] = molecular target: CDK4 (UniProt P11802)
[19] = molecular target: CDK5 (UniProt Q00535)
[20] = molecular target: CDK6 (UniProt Q00534)

Measured: kinase-Nluc reporter destabilization hit call

CC1(N)CCN(c2cnc3c(-c4cccc(Cl)c4Cl)[nH]nc3n2)CC1 (2.5 µM)
inactive: [1] 0 | [2] 0 | [3] 0 | [4] 0 | [5] 0 | [6] 0 | [7] 0 | [8] 0 | [9] 0 | [10] 0 | [11] 0 | [12] 0 | [13] 0 | [14] 0 | [15] 0 | [16] 0 | [17] 0 | [18] 0 | [19] 0 | [20] 0

O=c1ccoc2cc(O)ccc12 [7-Hydroxy-4H-chromen-4-one] (10 µM)
inactive: [1] 0 | [2] 0 | [3] 0 | [4] 0 | [5] 0 | [6] 0 | [7] 0 | [8] 0 | [9] 0 | [10] 0 | [11] 0 | [12] 0 | [13] 0 | [14] 0 | [15] 0 | [16] 0 | [17] 0 | [18] 0 | [19] 0 | [20] 0

COc1ccc2c(c1)c(C1=C(c3c[nH]c4ccccc34)C(=O)NC1=O)cn2CCCN(C)C (10 µM)
inactive: [1] 0 | [2] 0 | [3] 0 | [4] 0 | [5] 0 | [6] 0 | [7] 0 | [8] 0 | [9] 0 | [10] 0 | [11] 0 | [12] 0 | [13] 0 | [14] 0 | [15] 0 | [16] 0 | [17] 0 | [18] 0 | [19] 0 | [20] 0

C[C@@H]1COCCN1c1cc(C2([S@](C)(=N)=O)CC2)nc(-c2cc[nH]c3nccc2-3)n1 [Ceralasertib] (2.5 µM)
inactive: [1] 0 | [2] 0 | [3] 0 | [4] 0 | [5] 0 | [6] 0 | [7] 0 | [8] 0 | [9] 0 | [10] 0 | [11] 0 | [12] 0 | [13] 0 | [14] 0 | [15] 0 | [16] 0 | [17] 0 | [18] 0 | [19] 0 | [20] 0

CNC(=O)c1ccc(-c2cnc3cnc(-c4ccccc4)cn23)cc1 (10 µM)
inactive: [1] 0 | [2] 0 | [3] 0 | [4] 0 | [5] 0 | [6] 0 | [7] 0 | [8] 0 | [9] 0 | [10] 0 | [11] 0 | [12] 0 | [13] 0 | [14] 0 | [15] 0 | [16] 0 | [17] 0 | [18] 0 | [19] 0 | [20] 0

Cc1ccc(-c2ncn(-c3ccc(Nc4nccc(-c5cccc(N6CCOCC6)c5)n4)cc3)n2)cn1 (10 µM)
inactive: [1] 0 | [2] 0 | [3] 0 | [4] 0 | [5] 0 | [6] 0 | [7] 0 | [8] 0 | [9] 0 | [10] 0 | [11] 0 | [12] 0 | [13] 0 | [14] 0 | [15] 0 | [16] 0 | [17] 0 | [18] 0 | [19] 0 | [20] 0

CCOc1c([C@H](C)n2nc(C)c3c(N)ncnc32)cc(Cl)c(F)c1[C@@H]1CNC(=O)C1 [Parsaclisib (hydrochloride)] (10 µM)
inactive: [1] 0 | [2] 0 | [3] 0 | [4] 0 | [5] 0 | [6] 0 | [7] 0 | [8] 0 | [9] 0 | [10] 0 | [11] 0 | [12] 0 | [13] 0 | [14] 0 | [15] 0 | [16] 0 | [17] 0 | [18] 0 | [19] 0 | [20] 0

CC1=C(C(=O)Nc2ccc3[nH]ncc3c2)C(c2ccc(F)cc2)NC(=O)N1 (stereo not given) (10 µM)
inactive: [1] 0 | [2] 0 | [3] 0 | [4] 0 | [5] 0 | [6] 0 | [7] 0 | [8] 0 | [9] 0 | [10] 0 | [11] 0 | [12] 0 | [13] 0 | [14] 0 | [15] 0 | [16] 0 | [17] 0 | [18] 0 | [19] 0 | [20] 0

COc1ccc(CCNc2ncc3c(=O)n(-c4cccc(F)c4)c(=O)[nH]c3n2)cc1OC (2 µM)
inactive: [1] 0 | [2] 0 | [3] 0 | [4] 0 | [5] 0 | [6] 0 | [7] 0 | [8] 0 | [9] 0 | [10] 0 | [11] 0 | [12] 0 | [13] 0 | [14] 0 | [15] 0 | [16] 0 | [17] 0 | [18] 0 | [19] 0 | [20] 0

O=C(O)c1cc(O)c2c(c1)[C@@H]([C@H]1c3cc(C(=O)O)cc(O)c3C(=O)c3c(O[C@@H]4O[C@H](CO)[C@@H](O)[C@H](O)[C@H]4O)cccc31)c1cccc(O[C@@H]3O[C@H](CO)[C@@H](O)[C@H](O)[C@H]3O)c1C2=O [Sennoside B] (2.5 µM)
inactive: [1] 0 | [2] 0 | [3] 0 | [4] 0 | [5] 0 | [6] 0 | [7] 0 | [8] 0 | [9] 0 | [10] 0 | [11] 0 | [12] 0 | [13] 0 | [14] 0 | [15] 0 | [16] 0 | [17] 0 | [18] 0 | [19] 0 | [20] 0

O=c1nc(N2CCOCC2)oc2c(-c3cccc4c3sc3ccccc34)cccc12 (10 µM)
inactive: [1] 0 | [2] 0 | [3] 0 | [4] 0 | [5] 0 | [6] 0 | [7] 0 | [8] 0 | [9] 0 | [10] 0 | [11] 0 | [12] 0 | [13] 0 | [14] 0 | [15] 0 | [16] 0 | [17] 0 | [18] 0 | [19] 0 | [20] 0

C=CC(=O)Nc1cccc(Oc2nc(Nc3ccc(N4CCN(C)CC4)cc3)nc3ccoc23)c1 [Poseltinib] (10 µM)
inactive: [1] 0 | [2] 0 | [3] 0 | [4] 0 | [5] 0 | [6] 0 | [7] 0 | [8] 0 | [9] 0 | [10] 0 | [11] 0 | [12] 0 | [13] 0 | [14] 0 | [15] 0 | [16] 0 | [17] 0 | [18] 0 | [19] 0 | [20] 0

CCCC(=O)Nc1nc2c(ncn2[C@@H]2O[C@@H]3COP(=O)(O)O[C@H]3[C@H]2OC(=O)CCC)c(=O)[nH]1 [Dibutyryl-cGMP (sodium)] (10 µM)
inactive: [1] 0 | [2] 0 | [3] 0 | [4] 0 | [5] 0 | [6] 0 | [7] 0 | [8] 0 | [9] 0 | [10] 0 | [11] 0 | [12] 0 | [13] 0 | [14] 0 | [15] 0 | [16] 0 | [17] 0 | [18] 0 | [19] 0 | [20] 0

2 compounds picked at random from those above, as already listed:
O=C(O)c1cc(O)c2c(c1)[C@@H]([C@H]1c3cc(C(=O)O)cc(O)c3C(=O)c3c(O[C@@H]4O[C@H](CO)[C@@H](O)[C@H](O)[C@H]4O)cccc31)c1cccc(O[C@@H]3O[C@H](CO)[C@@H](O)[C@H](O)[C@H]3O)c1C2=O [Sennoside B] (2.5 µM)
inactive: [1] 0 | [2] 0 | [3] 0 | [4] 0 | [5] 0 | [6] 0 | [7] 0 | [8] 0 | [9] 0 | [10] 0 | [11] 0 | [12] 0 | [13] 0 | [14] 0 | [15] 0 | [16] 0 | [17] 0 | [18] 0 | [19] 0 | [20] 0

COc1ccc(CCNc2ncc3c(=O)n(-c4cccc(F)c4)c(=O)[nH]c3n2)cc1OC (2 µM)
inactive: [1] 0 | [2] 0 | [3] 0 | [4] 0 | [5] 0 | [6] 0 | [7] 0 | [8] 0 | [9] 0 | [10] 0 | [11] 0 | [12] 0 | [13] 0 | [14] 0 | [15] 0 | [16] 0 | [17] 0 | [18] 0 | [19] 0 | [20] 0

Next part

COC1(C(=O)N[C@@H](C)c2ccc(-n3cc(F)cn3)nc2)CCC(c2nc(C)cc(Nc3cc(C)[nH]n3)n2)CC1 (stereo partly drawn) [trans-Pralsetinib] (2.5 µM)
inactive: [1] 0 | [2] 0 | [3] 0 | [4] 0 | [5] 0 | [6] 0 | [7] 0 | [8] 0 | [9] 0 | [10] 0 | [11] 0 | [12] 0 | [13] 0 | [14] 0 | [15] 0 | [16] 0 | [17] 0 | [18] 0 | [19] 0 | [20] 0

CN(C)c1nc2c(Br)c(Br)c(Br)c(Br)c2n1CC(=O)O (10 µM)
inactive: [1] 0 | [2] 0 | [3] 0 | [4] 0 | [5] 0 | [6] 0 | [7] 0 | [8] 0 | [9] 0 | [10] 0 | [11] 0 | [12] 0 | [13] 0 | [14] 0 | [15] 0 | [16] 0 | [17] 0 | [18] 0 | [19] 0 | [20] 0

CN(CC(=O)N(Cc1ccc(C2CCCCC2)cc1)c1ccc(C(=O)O)c(O)c1)S(=O)(=O)c1c(F)c(F)c(F)c(F)c1F (2.5 µM)
active: [8] 1
inactive: [1] 0 | [2] 0 | [3] 0 | [4] 0 | [5] 0 | [6] 0 | [7] 0 | [9] 0 | [10] 0 | [11] 0 | [12] 0 | [13] 0 | [14] 0 | [15] 0 | [16] 0 | [17] 0 | [18] 0 | [19] 0 | [20] 0

N#C/C(=C\c1ccc2oc(=O)[nH]c2c1)C(=O)c1ccc(O)c(O)c1 (10 µM)
inactive: [1] 0 | [2] 0 | [3] 0 | [4] 0 | [5] 0 | [6] 0 | [7] 0 | [8] 0 | [9] 0 | [10] 0 | [11] 0 | [12] 0 | [13] 0 | [14] 0 | [15] 0 | [16] 0 | [17] 0 | [18] 0 | [19] 0 | [20] 0

O=C(O)c1ccc(-c2c[nH]c3ncc(-c4ccccc4)cc23)cc1C1CCCC1 (2.5 µM)
inactive: [1] 0 | [2] 0 | [3] 0 | [4] 0 | [5] 0 | [6] 0 | [7] 0 | [8] 0 | [9] 0 | [10] 0 | [11] 0 | [12] 0 | [13] 0 | [14] 0 | [15] 0 | [16] 0 | [17] 0 | [18] 0 | [19] 0 | [20] 0
